The results in this text go back to PMC9409066, “Functional Characterization of the Venus Flytrap Domain of the Human TAS1R2 Sweet Taste Receptor” (International Journal of Molecular Sciences, 2022).

In test [1] the target is human TAS1R2 Venus Flytrap domain (hTAS1R2-VFT) (human) (UniProt Q8TE23). The test can be described thus: SEC; preparative gel filtration, Superdex 200 16/600, 50 mM Tris-HCl pH 8, 150 mM NaCl, 0.5 mM DDM, 1 mM DTT, 1 mL/min; refolded protein concentrated to 2 mg/mL; self-association; both purified.
Test [2] has the same target. In words: SEC-MALS; Superdex 200 10/300, 50 mM Tris-HCl pH 8, 150 mM NaCl, 0.5 mM DDM; fractions 16 and 17 of the preparative gel filtration; dn/dc 0.185 mL/g; self-association; both purified.
The target of test [3] is hTAS1R2-VFT-D278A (human) (UniProt Q8TE23). In words: SEC; preparative gel filtration, Superdex 200 16/600, 50 mM Tris-HCl pH 8, 150 mM NaCl, 0.5 mM DDM, 1 mM DTT, 1 mL/min; refolded protein concentrated to 2 mg/mL; self-association; both purified.

Substitutions are numbered along the chain they refer to. Numbers in names are those of the source. No constants are given. Whether binding was seen depends on the method and setting.

B1: human TAS1R2 Venus Flytrap domain (hTAS1R2-VFT) (domain or fragment, UniProt Q8TE23 22-493)
chain: AENSDFYLPGDYLLGGLFSLHANMKGIVHLNFLQVPMCKEYEVKVIGYNLMQAMRFAVEEINNDSSLLPGVLLGYEIVDVCYISNNVQPVLYFLAHEDNLLPIQEDYSNYISRVVAVIGPDNSESVMTVANFLSLFLLPQITYSAISDELRDKVRFPALLRTTPSADHHIEAMVQLMLHFRWNWIIVLVSSDTYGRDNGQLLGERVARRDICIAFQETLPTLQPNQNMTSEERQRLVTIVDKLQQSTARVVVVFSPDLTLYHFFNEVLRQNFTGAVWIASESWAIDPVLHNLTELRHLGTFLGITIQSVPIPGFSEFREWGPQAGPPPLSRTSQSYTCNQECDNCLNATLSFNTILRLSGERVVYSVYSAVYAVAHALHSLLGCDKSTCTKRVVYPWQLLEEIWKVNFTLLDHQIFFDPQGDVALHLEIVQWQWDRSQNPFQSVASYYPLQRQLKNIQDISWHTINNTIPMS
As for B1, the results for the binding result in test [1] and in test [2] were “no binding (tested: 2 mg/mL)” and “no binding”, respectively.

B2: hTAS1R2-VFT-D278A (domain or fragment, UniProt Q8TE23 22-493)
chain: B1 chain with D257A
In the case of B2, the binding entry in test [3] is on record as “no binding”.
